In all, about 320,000 compounds went through this assay and about 22,000 (6.9%) were called active. This list was built around the results that the source calls inconclusive (neither active nor inactive); the mix of calls is not that of the screen. Calls follow the shape of the dose curve; as a rule, active = well fitted inhibition curve with a large enough effect; inconclusive = small, poorly fitted or top-dose-only effect, or another doubt; inactive = no such curve, though single readings can be large or run the other way. Potencies beside an inconclusive call are fits to weak or partial responses and may not hold up.
experiment: Primary qHTS for delayed death inhibitors of the malarial parasite plastid, 96 hour incubation; conditions: P. falciparum luciferase reporter growth; series mostly up to 28.7 µM
Procedure, shortened: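 Delayed-death screen, second-generation endpoint: infected erythrocytes, 2% hematocrit, 0.05% parasitemia final; 96 hours at 37 C, 5% CO2; luciferase detection reagent; luminescence decrease equals reduced growth.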
Potency is read from the fitted curve at half-maximal effect.

Compound	Potency
Cc1cccc(-c2nnc(-c3ccc(N)cc3)o2)c1	inactive
CCCc1cc(C(N)=S)ccn1	inconclusive: 0.0828 µM [inhibitor, full curve, poor fit]
Cc1ccc(CCNC(=O)CCS(=O)(=O)c2ccc3c(c2)oc(=O)n3C)cc1	inconclusive: 14.7 µM [inhibitor, single point]
CCOc1cc(/C=N\NC(=O)c2ccc(NC(=O)C(C)(C)C)cc2)ccc1OC(=O)c1ccc(C)cc1	inactive
COc1ccc(-c2nc(CN3CCN(c4ccccc4OC)CC3)c(C)o2)cc1	inconclusive: 18.5 µM [inhibitor, single point]
COc1ccc(C(=O)O/N=C(/c2ccccc2)c2ccncc2)cc1	inactive
COCCN(C(=O)COC(=O)/C=C/c1ccc(C)o1)c1c(N)n(Cc2ccccc2)c(=O)[nH]c1=O	inconclusive: 4.15 µM [inhibitor, partial curve, poor fit]
C[C@H](NC(=O)[C@@H]1Cc2ccccc2CN1C(=O)OC(C)(C)C)C(=O)NCc1ccco1	inconclusive: 18.5 µM [inhibitor, single point]
Cc1ccccc1N(C(=O)c1snc(C(N)=O)c1N)C(C(=O)NCC1CCCO1)c1ccc(N(C)C)cc1 (configuration not stated)	inconclusive: 5.22 µM [inhibitor, partial curve, poor fit]
COCCN=C1NN=C(c2ccc(C)c([N+](=O)[O-])c2)CS1	inactive
COCCNC(=O)/C(C#N)=C/c1c(N2CCN(c3ccccc3)CC2)nc2ccccn2c1=O	inconclusive: 10.4 µM [inhibitor, single point]
Cc1ccc(OCC(=O)Nc2nnc(S(=O)(=O)N3CCC(C)CC3)s2)cc1	inconclusive: 13.1 µM [inhibitor, single point]
CNC(=S)N1CC2CC(C1)c1cccc(=O)n1C2 (configuration not stated)	inconclusive: 4.15 µM [inhibitor, partial curve]
c1ccc(-c2nc(NCc3ccco3)c3ccccc3n2)nc1	active: 2.94 µM
Cc1ccc(-n2c(C)cc(/C=C(\C#N)C(=O)NCC3CCCO3)c2C)cc1 (configuration not stated)	active: 5.86 µM
CCN1CCN(CCC(=O)Nc2ccc(Br)cc2)CC1	inconclusive: 1.47 µM [inhibitor, full curve, poor fit]
CCCn1c(SCC#N)nc2c(c1=O)C1(CCCC1)Cc1ccccc1-2	active: 4.65 µM
CCOC(=O)c1ccc(NC(=O)CSc2nnc(-c3cccs3)n2C)cc1	active: 3.29 µM
O=C(CSc1n[nH]c(-c2ccccc2)n1)NC(=O)NCc1ccco1	inconclusive: 11.7 µM [inhibitor, partial curve, poor fit]
COc1ccccc1/C=C/C=N/n1c(-c2ccc(Cl)cc2)n[nH]c1=S	inconclusive: 2.62 µM [inhibitor, partial curve, poor fit]
Clc1ccc(Nc2ncnc3ccc(Br)cc23)cc1	active: 4.15 µM
NC(=O)C1CCN(CC(=O)Nc2cccnc2Cl)CC1	inactive
CN(C)c1ccc(C(=O)NCc2ccc3c(c2)OCO3)cc1	inactive
COc1ccc(/C=C2\SC(=S)N(CCCC(=O)Nc3ccc(O)cc3)C2=O)cc1	inconclusive: 3.29 µM [inhibitor, partial curve, poor fit]

Compound	Potency
Cc1ccc2c(c1)c1c3n2CCN(CCC(=O)O)C3CCC1 (configuration not stated)	inactive
CCN(C(=O)CN1CCN(c2ccccc2)CC1)c1c(N)n(Cc2ccccc2)c(=O)[nH]c1=O	inconclusive: 7.38 µM [inhibitor, partial curve, poor fit]
COc1ccc(-c2cnnc(N/N=C/c3ccc(O)c(OC)c3)n2)cc1	active: 5.22 µM
O=C(COC(=O)C1CCC1)NC(=O)c1ccccc1	inactive
CN1CCCN(c2ncnc3scc(-c4ccc(F)cc4)c23)CC1	inactive
CCOC(=O)NC(NCc1ccccc1)(C(F)(F)F)C(F)(F)F	inconclusive: 0.037 µM [inhibitor, full curve, poor fit]
O=C(Cn1nnc2ccccc2c1=O)NCCc1ccc(Cl)cc1Cl	inactive
Cc1ccc(S(=O)(=O)NCCC(=O)N2CCN(c3cccc(Cl)c3)CC2)cc1C	inconclusive: 5.86 µM [inhibitor, partial curve, poor fit]
Cc1ccccc1NC(=O)C1CCCN1S(=O)(=O)c1ccccc1C(F)(F)F (configuration not stated)	inconclusive: 5.22 µM [inhibitor, partial curve, poor fit]
Cc1ccc(NC(=O)c2cc3c(=O)oc4ccccc4c3s2)nc1	inconclusive: 18.5 µM [inhibitor, single point]
Cc1nc2ccccc2c2nc(N)nn12	inactive
COc1cc(-c2nnc3n(CCc4ccccc4)c(=O)c4ccccc4n23)cc(OC)c1OC	inconclusive: 1.65 µM [inhibitor, full curve]
CC(OC(=O)c1cccs1)C(=O)NCC1CCCO1 (configuration not stated)	inactive
CCOC(=O)C1=C(O)/C(=C\c2cccc(OC)c2)N=C1C	inconclusive: 0.0009 µM [inhibitor]
Cc1ccc(S(=O)(=O)N2CCOCC2)cc1C(=O)OCC(=O)NCc1ccccc1	inactive
Cc1cc(F)ccc1S(=O)(=O)N1CCC2(CC1)OCCN2S(=O)(=O)c1cccs1	inconclusive: 16.5 µM [inhibitor, partial curve, poor fit]
Nc1ncc(Br)cc1S(=O)(=O)N1CCCCCC1	inactive
CCOC(=O)C1=C(CNCc2ccc(F)cc2)NC(=O)NC1c1cccc([N+](=O)[O-])c1 (configuration not stated)	inconclusive: 18.5 µM [inhibitor, single point]
CC(=O)NC1=NN(C(C)=O)C(c2ccc(F)cc2)S1 (configuration not stated)	inactive
CCN(C(=O)COC(=O)c1cc(OC)c(OC)cc1[N+](=O)[O-])C1CCS(=O)(=O)C1 (configuration not stated)	inconclusive: 4.15 µM [inhibitor, single point]
Cc1ccc(C(=O)c2cc([N+](=O)[O-])ccc2N2CCOCC2)cc1C	inconclusive: 18.5 µM [inhibitor, single point]
Cc1cc(C)c(S(=O)(=O)NCC2CCC(C(=O)NCc3ccccn3)CC2)c(C)c1 (configuration not stated)	inactive
CN(Cc1cccc2cnccc12)C(=O)CCc1nnc(CCc2ccccc2)o1	inconclusive: 13.1 µM [inhibitor, single point]
COC(=O)[C@]1(C)CCC[C@@]2(C)C3CC[C@@]4(C)C[C@]3(CCC21)CC4=NO (some centres not stated)	inconclusive: 2.08 µM [inhibitor, partial curve, poor fit]

Compound	Potency
COc1ccccc1S(=O)(=O)Cc1ccc(C(=O)NCCCN2CCN(c3ccc(F)cc3)CC2)o1	inconclusive: 16.5 µM [inhibitor, single point]
O=S(=O)([N-]c1nc2ccccc2nc1-[n+]1ccccc1)c1ccccc1	inactive
O=C1CCC(=O)N(O)CCCCCNC(=O)CCC(=O)N(O)CCCCNC(=O)CCC(=O)N(O)CCCCCN1	inconclusive: 18.5 µM [inhibitor, single point]
COCCn1c(C)cc(/C=C(\C#N)C(=O)OCC(=O)N(C)c2c(N)n(Cc3ccccc3)c(=O)[nH]c2=O)c1C	active: 13.1 µM
CCCOc1ccc2cc(-c3ccccn3)c(=O)oc2c1	inactive
O=C(OCCN1CCOCC1)c1ccccc1	inactive
Cc1nc(Cl)sc1C(=O)O	inconclusive: 1.47 µM [inhibitor, full curve]
CC(OC(=O)C1=COCCO1)C(=O)Nc1ncc(Cl)cc1Cl (configuration not stated)	inactive
Cc1cc(NC(=O)COC(=O)CCS(=O)(=O)c2ccc(Cl)cc2)no1	inconclusive: 18.5 µM [inhibitor, single point]
O=[N+]([O-])c1ccccc1S(=O)(=O)NCCSCc1ccco1	inconclusive: 18.5 µM [inhibitor, single point]
CCOC(=O)C1CCCN(C2CC(=O)N(c3cccc(C)c3)C2=O)C1 (configuration not stated)	inactive
O=C(CN(CC1CCCO1)C(=O)CNS(=O)(=O)c1ccc(F)cc1)NCCc1ccccc1 (configuration not stated)	inconclusive: 18.5 µM [inhibitor, single point]
O=C(Nc1nc(-c2ccc3c(c2)OCCO3)cs1)c1ccc(S(=O)(=O)N2CCCCC2)cc1	inconclusive: 5.22 µM [inhibitor, partial curve]
O=C(N/N=C/c1ccccn1)c1ccc(Cl)c(Cl)c1	inconclusive: 18.5 µM [inhibitor, single point]
Cc1ccc(S(=O)(=O)N2CCN(C(=O)Cc3ccccc3)CC2)cc1C	inconclusive: 5.22 µM [inhibitor, partial curve, poor fit]
Cc1cc(C)n(-c2ccc(F)cc2CN2CCN(Cc3ccccc3)C(CCO)C2)n1 (configuration not stated)	inconclusive: 18.5 µM [inhibitor, single point]
C/C(=N\NC(=O)C(c1ccccc1)c1ccccc1)c1ccc(O)cc1	inconclusive: 0.37 µM [inhibitor, full curve, poor fit]
COc1cc2ccccc2cc1C(=O)Nc1ccc(NC(=O)c2cccs2)cc1	inconclusive: 13.1 µM [inhibitor, single point]
Cc1ccc(/C(N)=N/OC(=O)CCc2ccccc2)cc1	inactive
O=c1c2ccccc2nnn1CSc1ccc2ccccc2n1	inconclusive: 16.5 µM [inhibitor, single point]
O=C(CNCC1CCCO1)Nc1ccc(N2CCCCCC2)cc1 (configuration not stated)	active: 0.262 µM
CN1C(=O)Cc2cc(S(=O)(=O)Nc3ccc(N4CCOCC4)cc3)ccc21	inactive
O=C(CSc1ncccn1)NCc1cccs1	inactive
Cc1ccccc1OC1C(=O)N(Cc2ccc3c(c2)OCO3)C1c1sccc1C (configuration not stated)	active: 13.1 µM

Individual results from the results shown.
Cc1cc(C)n(-c2ccc(F)cc2CN2CCN(Cc3ccccc3)C(CCO)C2)n1 (configuration not stated) – Potency: inconclusive: 18.5 µM [inhibitor, single point]
CC(OC(=O)C1=COCCO1)C(=O)Nc1ncc(Cl)cc1Cl (configuration not stated) – Potency: inactive
O=C(CN(CC1CCCO1)C(=O)CNS(=O)(=O)c1ccc(F)cc1)NCCc1ccccc1 (configuration not stated) – Potency: inconclusive: 18.5 µM [inhibitor, single point]
Cc1ccccc1OC1C(=O)N(Cc2ccc3c(c2)OCO3)C1c1sccc1C (configuration not stated) – Potency: active: 13.1 µM
CCCOc1ccc2cc(-c3ccccn3)c(=O)oc2c1 – Potency: inactive
